PubChem BioAssay AID1259308 | NCATS – 2017
Shown is an unselected part of about 59,000 reagents tested. About 1,510 of all reagents (2.6%) were called active. 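Calls use total luciferase alone and ignore viability, so some active siRNAs may act by altering cell number.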 Reagents against one gene are numbered here. Reagent sequences are not shown.

Purpose: 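Candidate targets for better recombinant protein yield in mammalian cells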 (primary screen)
System: human HEK293 embryonic kidney cells stably expressing firefly luciferase (HEK-CMV-Luc2-Hygro)
Reagents: single siRNA against human genes, 0.8 pmol siRNA per well
Duration: 72 h
Measurement: 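Luciferase light (ONE-Glo) measured on one replicate plate set and viability (CellTiter-Glo) on the other, scaled to a negative control siRNA, with robust z-scores and luciferase per cell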
Reading the numbers: total luciferase, z-score and total luciferase, % of control: higher = more reporter protein produced; luciferase per cell, z-score: higher = more reporter output per viable cell; viable cells, % of control: higher = more viable cells
Active means: 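Active when the median/MAD z-score for overall luciferase is greater than 3; a gene was taken forward for validation with new siRNAs if at least two of its three siRNAs passed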
Meaning of the calls: active = raised luciferase; inactive = no rise

Target gene | siRNA no. | total luciferase, z-score | total luciferase, % of control | luciferase per cell, z-score | viable cells, % of control | Call
CWC22 (CWC22 spliceosome associated protein) | 1 | 1.81 | 118 | 4.59 | 39.3 | inactive
CWC22 (CWC22 spliceosome associated protein) | 2 | 2.55 | 133 | 2.04 | 86.5 | inactive
CWC22 (CWC22 spliceosome associated protein) | 3 | 0.603 | 93.9 | -0.374 | 116 | inactive
SMR3B (submaxillary gland androgen regulated protein 3B) | 1 | 0.561 | 93 | 1.42 | 71.6 | inactive
SMR3B (submaxillary gland androgen regulated protein 3B) | 2 | -1.2 | 58 | -1.39 | 93.5 | inactive
SMR3B (submaxillary gland androgen regulated protein 3B) | 3 | -0.385 | 74.2 | 0.253 | 77.6 | inactive
DNMBP (dynamin binding protein) | 1 | 1.14 | 104 | 1.13 | 86.6 | inactive
DNMBP (dynamin binding protein) | 2 | 0.738 | 96.6 | 0.0589 | 106 | inactive
DNMBP (dynamin binding protein) | 3 | 0.229 | 86.4 | -0.43 | 108 | inactive
CHST8 (carbohydrate sulfotransferase 8) | 1 | -0.303 | 75.9 | -0.32 | 92.2 | inactive
CHST8 (carbohydrate sulfotransferase 8) | 2 | 0.717 | 96.2 | 0.919 | 84.3 | inactive
CHST8 (carbohydrate sulfotransferase 8) | 3 | -0.657 | 68.8 | -0.648 | 91.2 | inactive
FOXRED1 (FAD dependent oxidoreductase domain containing 1) | 1 | -0.536 | 71.2 | 0.205 | 75.4 | inactive
FOXRED1 (FAD dependent oxidoreductase domain containing 1) | 2 | -1.54 | 51.3 | 0.515 | 50.1 | inactive
FOXRED1 (FAD dependent oxidoreductase domain containing 1) | 3 | -0.557 | 70.8 | -0.361 | 87 | inactive
SH3PXD2B (SH3 and PX domains 2B) | 1 | 0.422 | 90.3 | 0.589 | 86.4 | inactive
SH3PXD2B (SH3 and PX domains 2B) | 2 | -0.428 | 73.4 | 0.625 | 69.6 | inactive
SH3PXD2B (SH3 and PX domains 2B) | 3 | 0.117 | 84.2 | 0.415 | 84.4 | inactive
NOVA2 (NOVA alternative splicing regulator 2) | 1 | -0.234 | 77.2 | -0.404 | 96 | inactive
NOVA2 (NOVA alternative splicing regulator 2) | 2 | -0.0928 | 80 | 0.268 | 83.3 | inactive
NOVA2 (NOVA alternative splicing regulator 2) | 3 | -0.0565 | 80.8 | -0.432 | 101 | inactive
RPAP2 (RNA polymerase II associated protein 2) | 1 | -0.365 | 74.6 | 0.329 | 76.5 | inactive
RPAP2 (RNA polymerase II associated protein 2) | 2 | -1.25 | 57 | -0.849 | 79.7 | inactive
RPAP2 (RNA polymerase II associated protein 2) | 3 | -0.431 | 73.3 | -0.905 | 104 | inactive

As entered above:
For “luciferase per cell, z-score”, NOVA2 (NOVA alternative splicing regulator 2) #2 has 0.268
For “total luciferase, z-score”, RPAP2 (RNA polymerase II associated protein 2) #1 shows -0.365
